For this test, the target named is T1, ribonucleic acid export 1 (RAE1) (human (endogenous in 293T)) (UniProt P78406).
T1 sequence: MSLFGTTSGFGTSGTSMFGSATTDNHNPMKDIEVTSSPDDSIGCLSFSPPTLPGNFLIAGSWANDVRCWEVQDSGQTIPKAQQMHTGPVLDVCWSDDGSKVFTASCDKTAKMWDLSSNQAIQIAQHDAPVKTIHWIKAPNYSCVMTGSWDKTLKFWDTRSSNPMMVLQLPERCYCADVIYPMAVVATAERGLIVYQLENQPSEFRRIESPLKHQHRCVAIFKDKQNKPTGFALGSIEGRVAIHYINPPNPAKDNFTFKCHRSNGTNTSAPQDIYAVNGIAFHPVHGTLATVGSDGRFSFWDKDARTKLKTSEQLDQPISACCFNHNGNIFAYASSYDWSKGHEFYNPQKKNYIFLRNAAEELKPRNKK
As to the kind of experiment: co-IP.

Sequences of proteins named here, by UniProt entry; tags and fusion partners are left off. Residues count along the entry.
UniProt P0DTC6, residues 42-61: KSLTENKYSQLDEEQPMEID

Results are given in words; binding and its absence hold for the method and conditions named. In cells and extracts the contact can be indirect. Some results given as binding are weak or reduced against the parent protein; the word gives no strength.

In the case of “GFP fused to the 20-mer NPC targeting peptide of SARS-CoV-2 ORF6 (ORF6^42-61) (from UniProt P0DTC6 42-61) (domain or fragment)”, the binding entry was “binds”.

The values above are taken from publication PMC12548433.
